The supplement of paper PMC3334620
The full ranking holds about 33,000 sequences; the median of “E-score (-0.5 to 0.5)” is about -0.015, and the highest 2% start at about 0.3. The list shows a part of the results.

molecular target: T1, Abf1 (UniProt P14164); assay: PBM E-score (8-mer binding enrichment) (E-score (-0.5 to 0.5)); higher = stronger / more preferred TF binding; conditions: protein concentration: 200 nM; construct: GST-full length
T1 sequence: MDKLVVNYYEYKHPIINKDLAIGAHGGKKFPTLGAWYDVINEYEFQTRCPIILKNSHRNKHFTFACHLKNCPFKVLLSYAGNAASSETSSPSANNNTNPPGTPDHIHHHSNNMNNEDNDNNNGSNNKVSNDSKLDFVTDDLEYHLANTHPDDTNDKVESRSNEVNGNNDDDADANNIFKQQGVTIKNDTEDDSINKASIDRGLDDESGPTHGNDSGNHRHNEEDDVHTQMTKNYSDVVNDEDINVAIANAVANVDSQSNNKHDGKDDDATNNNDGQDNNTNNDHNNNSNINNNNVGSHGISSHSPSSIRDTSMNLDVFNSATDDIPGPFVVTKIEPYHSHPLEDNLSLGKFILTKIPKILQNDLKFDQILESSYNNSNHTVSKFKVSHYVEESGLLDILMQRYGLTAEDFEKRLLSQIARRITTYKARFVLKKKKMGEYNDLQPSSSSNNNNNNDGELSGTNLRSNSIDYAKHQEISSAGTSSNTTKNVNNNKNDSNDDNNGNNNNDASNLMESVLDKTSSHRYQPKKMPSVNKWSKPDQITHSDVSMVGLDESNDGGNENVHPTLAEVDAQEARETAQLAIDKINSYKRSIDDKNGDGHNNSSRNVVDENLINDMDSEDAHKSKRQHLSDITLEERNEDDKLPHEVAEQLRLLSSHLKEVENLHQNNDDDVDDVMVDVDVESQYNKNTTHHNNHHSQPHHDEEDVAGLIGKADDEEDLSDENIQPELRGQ
Procedure: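 Universal 'all 10-mer' protein binding microarrays (Agilent AMADID 015681) probed with GST-tagged S. cerevisiae TFs (full-length or DBD) made by in vitro transcription/translation (PURExpress), about 100-200 nM. Bound TF was detected with fluorescent anti-GST. Each ungapped 8-mer (which stands for itself and its reverse complement) is scored by the PBM enrichment score (E-score), a modified Wilcoxon-Mann-Whitney statistic from -0.5 to +0.5, computed with the Universal PBM Analysis Suite. Scale: above 0.35 generally sequence-specific binding.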

| Sequence | PBM E-score |
| --- | --- |
| ACCTACTC | -0.0139 |
| AGCCGGCC | -0.051 |
| GCCCAAAC | -0.14 |
| AGTATGTC | 0.171 |
| GAAATATC | 0.168 |
| AAAGAGAA | 0.0216 |
| ACCAACAA | 0.085 |
| CCCTTTCC | -0.14 |
| AGGTAACT | 0.157 |
| CCTCAAGA | -0.285 |
| ATGGCCAG | -0.0265 |
| AGCGAAAA | -0.101 |
| TCAACGAA | 0.169 |
| ACCAGCGG | -0.21 |
| CCGTGATC | 0.212 |
| ACCTTGCA | -0.128 |
| CTTGTTTA | -0.0487 |
| ACTTTCCC | -0.208 |
| AACGCGGT | -0.136 |
| CAATCTTA | 0.026 |
| GTATGCCA | -0.108 |
| AGAGGATC | 0.0124 |

| Sequence | PBM E-score |
| --- | --- |
| TCCTGAGA | -0.059 |
| CCCAAAAA | 0.0725 |
| TAATCGTA | 0.194 |
| ACCTAATG | -0.11 |
| CCGCCTAC | -0.0547 |
| GTCCACAA | -0.0942 |
| GCACACAC | 0.0193 |
| CCAAGAAC | -0.145 |
| AGTTCAAT | -0.14 |
| AAGTAATA | -0.0813 |
| TTAGCTAA | 0.098 |
| ACTACAAA | 0.167 |
| ATGTCGAG | 0.0824 |
| GGTCGAGA | -0.161 |
| ACGATCCG | -0.0878 |
| ATTGCGTG | -0.126 |
| CGGTCCGC | -0.222 |
| ACCACAAG | -0.161 |
| AACTGACT | -0.157 |
| CACCTACA | 0.0954 |
| ATTAGATC | -0.00144 |
| GCAAGCTA | -0.138 |

2 records drawn at random from the list so far, as already listed:

| Sequence | PBM E-score |
| --- | --- |
| GCAAGCTA | -0.138 |
| AAGTAATA | -0.0813 |

Exported as tab-separated lines: entries from further up
Sequence	PBM E-score
AGTTCAAT	-0.14
AAGTAATA	-0.0813

(next part)

| Sequence | PBM E-score |
| --- | --- |
| ATCGGATG | -0.0389 |
| GCGTACAC | 0.0451 |
| CTTGCAGC | -0.174 |
| AACGTAAG | 0.123 |
| CAATACTG | -0.239 |
| ATCTTTAC | 0.0694 |
| GATTCTGA | 0.188 |
| CCCTTTTC | 0.0558 |
| CTCGGGGC | -0.128 |
| AGAATCCC | 0.0491 |
| CTCCATTC | -0.216 |
| CACAGTAC | 0.00994 |
| CTACGGTC | -0.117 |
| AAATCATT | 0.296 |
| ATTGCTCC | -0.32 |
| CACAACAC | 0.041 |
| CAGTCCGG | -0.171 |
| CATAGGCG | -0.0207 |
| TACACCTA | -0.117 |
| GTATAGCA | 0.13 |
| CCTTCCAA | -0.108 |
| GAACGCTA | -0.113 |

| Sequence | PBM E-score |
| --- | --- |
| GCAGGGAC | -0.131 |
| GCTAGAGC | -0.143 |
| ACGGGCAT | -0.0655 |
| GGGCAAAA | 0.0367 |
| AACCCGGA | -0.358 |
| ATGCCATC | -0.0239 |
| ACCTAGCC | -0.24 |
| AGGCTGTG | -0.081 |
| CCGGTGCC | -0.212 |
| GCATATAC | -0.121 |
| GTTCAGTA | 0.0167 |
| ACGCGGTA | 0.0473 |
| CCTGACCG | -0.0404 |
| CAACTCTG | -0.165 |
| AACAGACC | 0.12 |
| CTCGGATC | 0.00124 |
| CGTTATCC | 0.0408 |
| AAAGATTT | -0.013 |
| CATTCGCC | 0.0362 |
| ATCGCCGA | -0.0865 |
